Measurements taken from patent US20250381143A1, “A SOLID PHARMACEUTICAL COMPOSITION” (ADLAI NORTYE BIOPHARMA CO., LTD., priority 2021, published 2025).
At least one read-out could not be matched to a standard name with certainty.

Assay: Biopharmaceutical Classification System class
Format: physicochemical
Conditions: as per BCS class
Source text: The present disclosure relates to a quality controllable solid dosage form and a process for its preparation, wherein the solid dosage form comprises a compound of formula 1 4-{(1S)-1-[({3-(difluoromethyl)-1-methyl-5-[3-(trifluoromethyl)phenoxy]-4-1H-pyrazolyl} carbonyl)amino]ethyl}benzoic acid (compound AN0025) and optionally at least one pharmaceutically acceptable carrier. […] The inventor unexpectedly found in the experiment that AN0025 tablets prepared by different processes can show good uniformity in in vitro dissolution experiments, and AN0025 tablets prepared with different API particle sizes have similar in vitro dissolution behavior and in vivo exposure.

C[C@H](NC(=O)c1c(C(F)F)nn(C)c1Oc1cccc(C(F)(F)F)c1)c1ccc(C(=O)O)cc1 [AN0025, 4-{(1S)-1-[({3-(difluoromethyl)-1-methyl-5-[3-(trifluoromethyl)phenoxy]-4-1H-pyrazolyl}carbonyl)amino]ethyl}benzoic acid]
permeability: poor permeability
